These are yes or no findings as the source states them, for the method shown. In cells and extracts the contact can be indirect. Some results given as binding are weak or reduced against the parent protein; the word gives no strength.

The chains behind the UniProt entries cited, without tags or fusion partners. Where a name states a change or a piece, a line headed by the entry shows the natural chain unless it says otherwise. Residues count along the entry.
UniProt Q9ULQ0: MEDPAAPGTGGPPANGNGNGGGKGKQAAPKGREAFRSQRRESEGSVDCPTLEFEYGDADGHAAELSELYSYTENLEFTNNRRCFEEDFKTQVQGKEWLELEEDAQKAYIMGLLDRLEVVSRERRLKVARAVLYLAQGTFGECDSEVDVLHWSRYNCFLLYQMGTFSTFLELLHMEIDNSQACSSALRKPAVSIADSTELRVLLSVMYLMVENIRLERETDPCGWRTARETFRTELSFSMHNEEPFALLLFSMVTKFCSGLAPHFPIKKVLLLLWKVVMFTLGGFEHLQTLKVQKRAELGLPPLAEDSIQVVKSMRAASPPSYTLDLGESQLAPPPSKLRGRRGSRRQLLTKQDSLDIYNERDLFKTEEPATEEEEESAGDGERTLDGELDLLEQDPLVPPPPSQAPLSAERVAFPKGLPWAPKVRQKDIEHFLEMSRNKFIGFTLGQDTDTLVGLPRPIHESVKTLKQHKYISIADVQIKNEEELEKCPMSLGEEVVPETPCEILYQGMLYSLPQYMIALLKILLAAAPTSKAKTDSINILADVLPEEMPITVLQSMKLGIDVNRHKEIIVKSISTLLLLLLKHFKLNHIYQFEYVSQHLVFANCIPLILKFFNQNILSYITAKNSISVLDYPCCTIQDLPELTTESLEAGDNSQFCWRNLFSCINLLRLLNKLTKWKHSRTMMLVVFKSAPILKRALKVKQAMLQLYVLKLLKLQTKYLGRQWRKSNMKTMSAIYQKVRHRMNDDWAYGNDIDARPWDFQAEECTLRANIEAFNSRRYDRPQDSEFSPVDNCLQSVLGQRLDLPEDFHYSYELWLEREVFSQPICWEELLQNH
STRIP2 (339-834) truncation: residues 339-834 of Q9ULQ0
UniProt O00425: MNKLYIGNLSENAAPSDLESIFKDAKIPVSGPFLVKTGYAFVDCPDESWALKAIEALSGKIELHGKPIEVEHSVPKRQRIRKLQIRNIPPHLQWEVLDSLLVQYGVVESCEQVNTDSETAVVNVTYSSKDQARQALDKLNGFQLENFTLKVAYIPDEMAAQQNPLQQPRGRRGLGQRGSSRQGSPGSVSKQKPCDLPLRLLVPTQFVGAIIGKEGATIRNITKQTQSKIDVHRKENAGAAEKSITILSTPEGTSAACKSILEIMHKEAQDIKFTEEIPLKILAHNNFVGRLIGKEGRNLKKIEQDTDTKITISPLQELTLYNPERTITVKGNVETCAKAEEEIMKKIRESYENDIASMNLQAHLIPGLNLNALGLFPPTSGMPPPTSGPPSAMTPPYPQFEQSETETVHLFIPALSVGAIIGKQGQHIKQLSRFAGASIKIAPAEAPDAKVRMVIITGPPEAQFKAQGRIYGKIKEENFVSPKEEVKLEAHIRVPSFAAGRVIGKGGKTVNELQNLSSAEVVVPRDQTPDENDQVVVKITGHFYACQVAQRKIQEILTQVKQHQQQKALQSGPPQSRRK

Assay [1] addresses Flag-STRIP2 (striatin interacting protein 2), expressed in PC9 cells (UniProt Q9ULQ0). The experiment in a line: co-IP; immunoprecipitation from transfected cells (PC9 with Flag-STRIP2; A549 with IGF2BP3-myc; 293T with Flag-STRIP2 and IGF2BP3-myc), western blot. In general terms: Immunoblotting shows a protein as a band on a membrane.
Assay [2] concerns the target 3xFlag-STRIP2, expressed in 293T cells (UniProt Q9ULQ0). Described as above.
Assay [3] addresses STRIP2 (339-834) truncation (UniProt Q9ULQ0). The experiment in a line: co-IP; immunoprecipitation with truncated STRIP2 or myc-tagged full length and truncated IGF2BP3; cells not given.
Assay [4] has as its target GST-IGF2BP3 fusion protein (UniProt O00425). The experiment in a line: pull-down; GST-IGF2BP3 on beads, incubated with whole 293T cell lysate transfected with STRIP2-flag at 4 °C overnight; western blot; only the target purified.
The target in assay [5] is 3xFlag-STRIP2, expressed in 293T cells (UniProt Q9ULQ0). The experiment in a line: co-IP; immunoprecipitation with truncated STRIP2 or myc-tagged full length and truncated IGF2BP3; cells not given.
In assay [6] the target is IGF2BP3-myc, expressed in A549 cells (UniProt O00425). In words: co-IP; immunoprecipitation from transfected cells (PC9 with Flag-STRIP2; A549 with IGF2BP3-myc; 293T with Flag-STRIP2 and IGF2BP3-myc), western blot.

On to “endogenous IGF2BP3 (insulin-like growth factor 2 mRNA-binding protein 3) of PC9 cells (from UniProt O00425 1-579)”, for which, in assay [1], the binding result is “binds”.

Turning to “IGF2BP3-myc (myc-tagged full length IGF2BP3), expressed in 293T cells (from UniProt O00425 1-579)”, the binding entry in assay [2] and in assay [3] was “binds” in each case.

Consider “3xFlag-STRIP2, expressed in 293T cells (from UniProt Q9ULQ0 1-834)”, for which, in assay [4], the binding entry is reported as “binds”.

Take “myc-tagged truncated IGF2BP3 (199-407), KH1 and KH2 domains (from UniProt O00425 199-407) (domain or fragment)”: in assay [5], the binding result is “binds”.

“endogenous STRIP2 of A549 cells (from UniProt Q9ULQ0 1-834)”: the binding entry in assay [6] was “binds”.

(Values after publication PMC9837939.)
